Data from PubChem BioAssay AID1347076 (National Center for Advancing Translational Sciences (NCATS), 2019).
The whole screen tested about 400,000 compounds, of which about 13,000 (3.2%) were called active. The shares of active, inactive and inconclusive entries below differ from those in the screen. Calls follow the shape of the dose curve; as a rule, active = well fitted cell-killing curve with a large enough effect; inconclusive = small, poorly fitted or top-dose-only effect, or effect the other way; inactive = flat fitted curve, though single readings scatter. A potency beside an inconclusive call is a rough fit, not a confirmed value.
% is scaled to controls: 0 for no effect and ±100 for the full control effect; potency is read from the fitted curve at half-maximal effect.

Experiment: qHTS assay for MDR1-selective chemotherapeutics: Primary screen using the drug-selected MDR subline cells KB-V1; also: nearly all actives have a fitted effect of over 60% in size
Details: KB-V1 MDR cells viability, CellTiter-Glo, 72 h; activity change, negative = cytotoxicity: at 46.1 µM (top of the series)
Outline: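 Following 72 h at 37 degrees C with compound, KB-V1 cell viability was read by CellTiter-Glo luminescence, medium being phenol-red-free DMEM plus 10% FBS; concentration-response parameters came from normalized, curve-fitted qHTS data.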
In the case of O=C(Cc1ccc(Cl)cc1)SCc1ccccc1, the “activity change, negative = cytotoxicity” value was inactive: -0.0247%.
For Cc1nc(-c2cccc(NC(=O)c3ccc(-n4cccn4)cc3)c2)cs1, the Potency was inconclusive: 29.1 µM [cytotoxic, single point].
For COc1cc(CNCCc2ccc(S(N)(=O)=O)cc2)ccc1OCc1ccc(Cl)cc1, the Potency was inconclusive: 29.1 µM [cytotoxic, single point].
In the case of COc1nc(Nc2cccc(F)c2)nc(OC)n1, the Potency was active: 6.51 µM.
With CCN1CCN(c2cc(C)c3cc(NC(=O)c4ccccc4F)ccc3n2)CC1 the Potency was inconclusive: 8.2 µM [rising, partial curve, poor fit].
With O=C(c1ccccc1)c1ccc(-c2ccc(O)cc2)cc1 the Potency was inconclusive: 18.4 µM [cytotoxic, single point].
With CCCCc1c(O)nc(SCC(=O)c2ccccc2)[nH]c1=O the “activity change, negative = cytotoxicity” value was inactive: 4.98%.
For O=C(CSc1nc2ccccc2c(=O)n1CCC(=O)N1CCN(c2ccccc2)CC1)NCC1CCCO1 (stereo not given), the Potency was inconclusive: 11.6 µM [cytotoxic, partial curve].
In the case of O=C(COC(=O)C1=COCCO1)Nc1cc(S(=O)(=O)N2CCCCC2)ccc1Cl, the Potency was inconclusive: 20.6 µM [cytotoxic, partial curve, poor fit].
For Cc1ccc(C(=O)CSc2nc3cc(S(=O)(=O)N4CCOCC4)ccc3o2)cc1, the “activity change, negative = cytotoxicity” value was inactive: -28.7%.
With Oc1ccccc1-n1nc2ccc3nonc3c2n1 the Potency was inconclusive: 1.64 µM [rising, single point].
In the case of Cc1ccc(OCC(=O)OCc2nc3scc(-c4ccccc4)c3c(=O)[nH]2)cc1C, the Potency was inconclusive: 32.6 µM [cytotoxic, single point].
For Cn1nc(C(F)(F)F)c(/C=N/OC(=O)c2ccccc2)c1Sc1ccc(Cl)cc1, the “activity change, negative = cytotoxicity” value was inactive: 0%.
For C#CCSc1nc2ccccc2c(=O)n1CC=C, the Potency was inconclusive: 29.1 µM [rising, single point].
For COc1cccc(C(C(=O)NC2CCCC2)N2CCN(c3ncccc3C#N)CC2)c1OC (stereo not given), the Potency was inconclusive: 2.59 µM [cytotoxic, partial curve].
In the case of CC(=O)c1cccc(NC(=O)CSc2ccc(-c3sc(C)nc3C)nn2)c1, the Potency was inconclusive: 16.4 µM [cytotoxic, single point].
With Cc1nn(CC(=O)NCCCc2ccccc2)c(C)c1[N+](=O)[O-] the Potency was inconclusive: 0.517 µM [cytotoxic, full curve, poor fit].
With Nc1nc(NCc2ccc(F)cc2)c2[nH]cnc2n1 the “activity change, negative = cytotoxicity” value was inactive: 2.07%.
In the case of Cc1cccc(OCC(=O)NC2CCCc3ccccc32)c1C (stereo not given), the Potency was inconclusive: 29.1 µM [cytotoxic, single point].
For COc1ccc(Cl)cc1NC(=O)CCNS(=O)(=O)c1cccc2nonc12, the Potency was inconclusive: 32.6 µM [cytotoxic, single point].
